Some of the results follow.
Key:
Assay in all cases: log2 fold change, soluble protein after heating vs DMSO (PISA); higher = thermal stabilisation; K562 lysate, 10 uM; active = over 0.2 and 3.5 SD of the protein, either way, in both replicates (recomputed)
[1] = compound: C1=CC=C(C=C1)[C@H](COC2=CC3=C(C=C2)NC(=O)N3)NC(=O)C4=CC=CN(C4=O)CC5=CC(=C(C=C5)F)F
Outline: (§1)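 To prepare the extract, K562 pellets were dounce-homogenised in PBS pH 7.4 with 1 mM MgCl2, giving crude material at 1 mg/mL protein. This was treated with 10 μM compound for 30 min, then heated in aliquots for 3 min over 48°C-58°C before pooling and addition of NP-40 to 0.5% at 4°C. Centrifugation at 21,000xg for 90 min left soluble protein in the supernatant, which TMTpro 16plex LC-MS/MS quantified with equalised channel sums. Results are log-two fold changes in thermal stability compared with solvent controls, from duplicates.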

The chains behind the UniProt entries cited, without tags or fusion partners. Where a name states a change or a piece, a line headed by the entry shows the natural chain unless it says otherwise.
UniProt Q96MX6, whole entry, looked up: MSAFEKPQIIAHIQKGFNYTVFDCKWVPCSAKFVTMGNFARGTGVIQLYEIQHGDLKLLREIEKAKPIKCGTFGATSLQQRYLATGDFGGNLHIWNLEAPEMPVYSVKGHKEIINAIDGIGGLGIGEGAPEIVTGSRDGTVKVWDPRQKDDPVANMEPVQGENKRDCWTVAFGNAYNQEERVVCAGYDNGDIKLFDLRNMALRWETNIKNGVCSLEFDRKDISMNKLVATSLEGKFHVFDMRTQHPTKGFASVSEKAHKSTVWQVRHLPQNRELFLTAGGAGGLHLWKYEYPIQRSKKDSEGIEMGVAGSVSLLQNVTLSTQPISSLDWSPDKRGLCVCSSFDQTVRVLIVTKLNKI
UniProt Q96JC1: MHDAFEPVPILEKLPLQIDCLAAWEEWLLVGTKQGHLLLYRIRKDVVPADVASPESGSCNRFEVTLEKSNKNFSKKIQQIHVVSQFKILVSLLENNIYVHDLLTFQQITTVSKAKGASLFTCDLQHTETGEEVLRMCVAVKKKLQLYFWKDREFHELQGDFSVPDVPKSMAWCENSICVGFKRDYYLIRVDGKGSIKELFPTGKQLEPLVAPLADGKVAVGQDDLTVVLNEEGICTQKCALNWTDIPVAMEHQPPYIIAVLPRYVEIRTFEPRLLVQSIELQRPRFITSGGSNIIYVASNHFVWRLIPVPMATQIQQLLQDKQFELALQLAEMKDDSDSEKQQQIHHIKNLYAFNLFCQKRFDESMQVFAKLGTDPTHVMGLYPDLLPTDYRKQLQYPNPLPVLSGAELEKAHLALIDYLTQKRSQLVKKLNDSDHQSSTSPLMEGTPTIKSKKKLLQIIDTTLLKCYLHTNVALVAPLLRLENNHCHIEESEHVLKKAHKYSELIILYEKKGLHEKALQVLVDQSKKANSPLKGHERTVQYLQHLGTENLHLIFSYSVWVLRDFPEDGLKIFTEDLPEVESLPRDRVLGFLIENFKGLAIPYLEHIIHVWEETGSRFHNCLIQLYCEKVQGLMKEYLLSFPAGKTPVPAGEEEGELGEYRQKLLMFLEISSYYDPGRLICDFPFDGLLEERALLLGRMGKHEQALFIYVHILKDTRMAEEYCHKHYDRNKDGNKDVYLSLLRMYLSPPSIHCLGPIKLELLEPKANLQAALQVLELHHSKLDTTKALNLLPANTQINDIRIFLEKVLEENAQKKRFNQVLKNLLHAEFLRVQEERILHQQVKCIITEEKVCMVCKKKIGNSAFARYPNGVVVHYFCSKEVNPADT
UniProt Q9BUR4: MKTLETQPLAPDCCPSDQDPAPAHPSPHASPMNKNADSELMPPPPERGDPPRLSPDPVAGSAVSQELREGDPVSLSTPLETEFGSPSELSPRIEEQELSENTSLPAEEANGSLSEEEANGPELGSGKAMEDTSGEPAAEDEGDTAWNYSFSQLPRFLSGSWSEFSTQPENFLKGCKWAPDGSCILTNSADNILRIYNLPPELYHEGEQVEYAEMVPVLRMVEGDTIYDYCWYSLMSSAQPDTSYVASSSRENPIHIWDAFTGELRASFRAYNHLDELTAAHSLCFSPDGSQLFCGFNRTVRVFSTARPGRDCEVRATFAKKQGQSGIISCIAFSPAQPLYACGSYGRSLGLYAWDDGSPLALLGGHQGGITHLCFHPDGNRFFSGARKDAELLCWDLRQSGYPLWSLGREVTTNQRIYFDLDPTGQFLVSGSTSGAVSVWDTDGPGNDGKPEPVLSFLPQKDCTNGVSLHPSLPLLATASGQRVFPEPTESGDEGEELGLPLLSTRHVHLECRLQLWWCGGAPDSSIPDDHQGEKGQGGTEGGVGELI
UniProt Q9UN37: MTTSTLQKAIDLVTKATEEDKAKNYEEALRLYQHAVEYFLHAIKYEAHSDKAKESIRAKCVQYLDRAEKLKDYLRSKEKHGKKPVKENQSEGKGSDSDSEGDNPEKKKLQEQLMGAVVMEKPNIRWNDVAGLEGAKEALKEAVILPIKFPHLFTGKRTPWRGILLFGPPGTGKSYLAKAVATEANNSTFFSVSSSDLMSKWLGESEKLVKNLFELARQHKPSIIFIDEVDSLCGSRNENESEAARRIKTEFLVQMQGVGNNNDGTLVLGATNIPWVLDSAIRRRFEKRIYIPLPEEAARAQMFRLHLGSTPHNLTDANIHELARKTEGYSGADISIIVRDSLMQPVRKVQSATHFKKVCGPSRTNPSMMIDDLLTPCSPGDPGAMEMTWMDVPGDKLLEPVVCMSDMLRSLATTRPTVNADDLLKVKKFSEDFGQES
UniProt Q9Y6W5, whole entry, looked up: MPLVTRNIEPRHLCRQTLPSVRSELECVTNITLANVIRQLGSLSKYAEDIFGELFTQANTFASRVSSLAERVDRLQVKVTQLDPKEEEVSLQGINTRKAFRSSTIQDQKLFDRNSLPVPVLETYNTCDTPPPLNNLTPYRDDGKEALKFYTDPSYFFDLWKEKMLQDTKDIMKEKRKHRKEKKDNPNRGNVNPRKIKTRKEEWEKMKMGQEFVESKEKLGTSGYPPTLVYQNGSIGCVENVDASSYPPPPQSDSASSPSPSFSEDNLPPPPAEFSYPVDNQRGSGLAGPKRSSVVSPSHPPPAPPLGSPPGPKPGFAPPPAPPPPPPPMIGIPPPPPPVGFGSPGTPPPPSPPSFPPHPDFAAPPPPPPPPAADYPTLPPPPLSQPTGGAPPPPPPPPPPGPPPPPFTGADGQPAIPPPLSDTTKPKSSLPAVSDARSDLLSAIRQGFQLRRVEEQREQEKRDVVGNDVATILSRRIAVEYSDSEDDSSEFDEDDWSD
UniProt Q6VEQ5: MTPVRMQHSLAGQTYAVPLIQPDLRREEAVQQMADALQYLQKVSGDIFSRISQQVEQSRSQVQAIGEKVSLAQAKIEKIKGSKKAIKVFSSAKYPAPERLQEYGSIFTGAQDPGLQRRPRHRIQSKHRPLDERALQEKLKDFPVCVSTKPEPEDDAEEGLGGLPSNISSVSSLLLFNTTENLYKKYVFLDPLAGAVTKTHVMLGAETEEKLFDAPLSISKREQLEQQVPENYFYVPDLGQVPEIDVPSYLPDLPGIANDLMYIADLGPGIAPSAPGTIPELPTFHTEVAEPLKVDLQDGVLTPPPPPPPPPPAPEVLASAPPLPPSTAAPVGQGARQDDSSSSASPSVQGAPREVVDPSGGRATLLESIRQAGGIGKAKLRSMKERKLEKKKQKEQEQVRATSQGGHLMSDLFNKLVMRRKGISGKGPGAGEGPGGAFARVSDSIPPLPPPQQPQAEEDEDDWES
UniProt Q9Y4E6, whole entry, looked up: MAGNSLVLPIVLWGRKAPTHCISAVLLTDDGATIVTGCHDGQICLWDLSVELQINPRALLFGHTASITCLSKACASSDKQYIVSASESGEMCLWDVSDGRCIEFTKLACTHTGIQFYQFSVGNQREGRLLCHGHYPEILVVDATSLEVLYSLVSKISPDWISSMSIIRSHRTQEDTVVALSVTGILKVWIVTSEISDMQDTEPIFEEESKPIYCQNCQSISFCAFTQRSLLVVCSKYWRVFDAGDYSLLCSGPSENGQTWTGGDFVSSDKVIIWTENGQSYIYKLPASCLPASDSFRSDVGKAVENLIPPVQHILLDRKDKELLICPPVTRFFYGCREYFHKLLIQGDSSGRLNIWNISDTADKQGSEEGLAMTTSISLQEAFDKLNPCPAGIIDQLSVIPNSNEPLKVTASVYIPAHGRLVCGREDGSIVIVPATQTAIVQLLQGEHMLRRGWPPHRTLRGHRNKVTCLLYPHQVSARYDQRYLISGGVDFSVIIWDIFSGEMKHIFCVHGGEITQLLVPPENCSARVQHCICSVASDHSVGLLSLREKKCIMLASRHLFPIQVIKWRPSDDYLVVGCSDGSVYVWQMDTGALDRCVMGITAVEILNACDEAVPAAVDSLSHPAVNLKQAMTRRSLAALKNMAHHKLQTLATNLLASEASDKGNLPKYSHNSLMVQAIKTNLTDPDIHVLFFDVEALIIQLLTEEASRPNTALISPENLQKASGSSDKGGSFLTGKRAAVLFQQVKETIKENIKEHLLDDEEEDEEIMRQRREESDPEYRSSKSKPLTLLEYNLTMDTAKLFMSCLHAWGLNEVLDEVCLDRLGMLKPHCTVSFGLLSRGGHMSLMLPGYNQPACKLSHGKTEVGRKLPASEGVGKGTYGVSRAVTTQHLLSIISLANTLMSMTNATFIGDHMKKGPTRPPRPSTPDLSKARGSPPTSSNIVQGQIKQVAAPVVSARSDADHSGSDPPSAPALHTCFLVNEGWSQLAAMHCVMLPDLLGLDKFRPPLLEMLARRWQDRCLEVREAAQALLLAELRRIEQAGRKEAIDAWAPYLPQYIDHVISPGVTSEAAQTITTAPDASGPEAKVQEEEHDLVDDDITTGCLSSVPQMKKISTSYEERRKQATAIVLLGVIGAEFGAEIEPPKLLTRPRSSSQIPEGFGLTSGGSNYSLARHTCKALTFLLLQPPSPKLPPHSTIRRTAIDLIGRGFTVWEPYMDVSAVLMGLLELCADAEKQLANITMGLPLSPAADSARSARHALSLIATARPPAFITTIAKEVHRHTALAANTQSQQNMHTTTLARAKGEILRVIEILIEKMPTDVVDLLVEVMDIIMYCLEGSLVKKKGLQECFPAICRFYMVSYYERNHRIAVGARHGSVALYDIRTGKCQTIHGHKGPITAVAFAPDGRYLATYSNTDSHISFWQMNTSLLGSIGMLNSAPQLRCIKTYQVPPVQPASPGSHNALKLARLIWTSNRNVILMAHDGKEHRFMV
UniProt Q96J92: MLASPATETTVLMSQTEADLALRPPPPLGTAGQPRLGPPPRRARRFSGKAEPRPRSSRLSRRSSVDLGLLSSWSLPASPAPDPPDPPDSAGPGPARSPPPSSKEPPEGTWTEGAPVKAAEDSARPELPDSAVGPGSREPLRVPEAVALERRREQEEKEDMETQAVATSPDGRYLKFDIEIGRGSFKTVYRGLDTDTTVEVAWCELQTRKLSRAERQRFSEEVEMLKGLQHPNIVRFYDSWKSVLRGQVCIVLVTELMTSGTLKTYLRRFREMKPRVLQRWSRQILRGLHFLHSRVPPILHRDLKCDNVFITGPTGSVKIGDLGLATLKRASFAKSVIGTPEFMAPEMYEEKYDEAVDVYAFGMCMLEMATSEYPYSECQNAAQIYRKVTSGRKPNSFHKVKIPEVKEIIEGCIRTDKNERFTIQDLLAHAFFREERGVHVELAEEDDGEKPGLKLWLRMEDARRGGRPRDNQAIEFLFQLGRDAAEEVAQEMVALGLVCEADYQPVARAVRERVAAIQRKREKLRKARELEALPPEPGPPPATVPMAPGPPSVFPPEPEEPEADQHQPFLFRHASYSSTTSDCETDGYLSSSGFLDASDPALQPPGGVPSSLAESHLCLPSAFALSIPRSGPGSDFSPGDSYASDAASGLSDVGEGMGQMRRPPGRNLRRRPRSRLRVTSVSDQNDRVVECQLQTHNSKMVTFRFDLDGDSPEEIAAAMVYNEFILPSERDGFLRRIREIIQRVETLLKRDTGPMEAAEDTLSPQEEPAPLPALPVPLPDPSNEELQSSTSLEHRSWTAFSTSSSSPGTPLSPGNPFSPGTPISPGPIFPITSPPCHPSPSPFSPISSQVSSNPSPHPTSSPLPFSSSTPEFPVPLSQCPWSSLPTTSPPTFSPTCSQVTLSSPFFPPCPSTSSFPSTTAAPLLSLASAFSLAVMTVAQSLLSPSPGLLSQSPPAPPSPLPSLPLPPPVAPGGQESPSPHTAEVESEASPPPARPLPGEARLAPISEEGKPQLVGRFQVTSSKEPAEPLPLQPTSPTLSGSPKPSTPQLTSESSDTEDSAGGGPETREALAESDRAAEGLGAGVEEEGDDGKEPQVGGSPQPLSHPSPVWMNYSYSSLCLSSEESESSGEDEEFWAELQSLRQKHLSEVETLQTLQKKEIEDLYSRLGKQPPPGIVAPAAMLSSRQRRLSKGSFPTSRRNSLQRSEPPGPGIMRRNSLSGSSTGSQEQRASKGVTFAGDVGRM
UniProt Q3ZAQ7: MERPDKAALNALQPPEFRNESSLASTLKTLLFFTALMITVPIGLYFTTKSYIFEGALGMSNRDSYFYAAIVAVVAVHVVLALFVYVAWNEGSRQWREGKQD
UniProt Q9BV38: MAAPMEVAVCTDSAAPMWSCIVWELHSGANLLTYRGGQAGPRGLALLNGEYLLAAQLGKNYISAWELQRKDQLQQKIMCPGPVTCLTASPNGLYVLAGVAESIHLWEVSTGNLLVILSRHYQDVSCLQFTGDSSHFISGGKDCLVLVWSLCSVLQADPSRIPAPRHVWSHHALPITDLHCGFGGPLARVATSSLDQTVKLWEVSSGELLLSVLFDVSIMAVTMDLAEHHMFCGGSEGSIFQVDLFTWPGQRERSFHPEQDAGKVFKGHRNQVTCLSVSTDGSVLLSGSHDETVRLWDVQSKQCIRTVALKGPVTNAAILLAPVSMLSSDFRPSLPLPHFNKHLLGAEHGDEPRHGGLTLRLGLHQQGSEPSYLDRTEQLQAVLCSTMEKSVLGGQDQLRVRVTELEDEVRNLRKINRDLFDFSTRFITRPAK

[2] = compound: CC1=C(SC2=C1C(=N[C@H](C3=NN=C(N32)C)CC(=O)N)C4=CC=C(C=C4)Cl)C
Outline: as §1

[3] = compound: CC1=C2C(=CC=C1)N=C(N(C2=O)C3=CC=CC=C3C)CN4C=NC5=C(N=CN=C54)N
Outline: as §1

[4] = compound: Cc1sc2c(c1C)C(c1ccc(Cl)cc1)=N[C@@H](CC(=O)OC(C)(C)C)c1nnc(C)n1-2
Outline: as §1

[5] = compound: c1ccc([C@@H]2C[C@H]2NC2CCNCC2)cc1
Outline: as §1

Measured: log2 fold change

WDR92 (UniProt Q96MX6)
inactive: [1] -0.051 | [2] -0.034 | [3] -0.007 | [4] 0.045 | [5] -0.047

VPS39 (UniProt Q96JC1)
inactive: [1] -0.008 | [2] -0.002 | [3] -0.006 | [4] -0.009 | [5] 0.3

WDSUB1 (UniProt Q8N9V3)
inactive: [1] 0.037 | [2] -0.005 | [3] -0.026 | [4] 0 | [5] -0.064

VPS35 (UniProt Q96QK1)
inactive: [1] 0.012 | [2] -0.011 | [3] 0.001 | [4] -0.009 | [5] 0.031

VKORC1 (UniProt Q9BQB6)
inactive: [1] -0.02 | [2] 0.134 | [3] 0.01 | [4] 0.029 | [5] 0.005

VRK2 (UniProt Q86Y07)
inactive: [1] 0.004 | [2] 0 | [3] -0.242 | [4] -0.023 | [5] -0.018

WASHC5 (UniProt Q12768)
inactive: [1] -0.01 | [2] 0.006 | [3] 0.009 | [4] 0.001 | [5] 0

WRAP53 (UniProt Q9BUR4)
inactive: [1] 0.063 | [2] 0.046 | [3] -0.009 | [4] -0.092 | [5] -0.038

VPS4A (UniProt Q9UN37)
inactive: [1] -0.056 | [2] 0.034 | [3] -0.102 | [4] 0.017 | [5] 0.074

XIAP (UniProt P98170)
inactive: [1] 0.008 | [2] 0.029 | [3] 0.07 | [4] -0.001 | [5] 0

VPS13A (UniProt Q96RL7)
inactive: [1] -0.056 | [2] 0.049 | [3] 0.018 | [4] 0.049 | [5] 0.045

WASF2 (UniProt Q9Y6W5)
inactive: [1] -0.002 | [2] 0 | [3] -0.012 | [4] -0.028 | [5] -0.006

WASH2P (UniProt Q6VEQ5)
inactive: [1] -0.004 | [2] -0.002 | [3] 0.079 | [4] 0.012 | [5] 0.008

WDR11 (UniProt Q9BZH6)
inactive: [1] -0.13 | [2] 0.073 | [3] 0.033 | [4] -0.051 | [5] -0.157

VMP1 (UniProt Q96GC9)
inactive: [1] 0.084 | [2] -0.062 | [3] 0.025 | [4] -0.076 | [5] -0.108

WDR45B (UniProt Q5MNZ6)
inactive: [1] 0.014 | [2] -0.025 | [3] -0.039 | [4] -0.007 | [5] -0.104

VPS53 isoform 4 (UniProt Q5VIR6)
inactive: [1] -0.016 | [2] 0.005 | [3] 0.011 | [4] 0.008 | [5] 0.019

Reprinted at random: 2 entries already listed, in no set order.
XIAP (UniProt P98170)
inactive: [1] 0.008 | [2] 0.029 | [3] 0.07 | [4] -0.001 | [5] 0

WDR11 (UniProt Q9BZH6)
inactive: [1] -0.13 | [2] 0.073 | [3] 0.033 | [4] -0.051 | [5] -0.157

Carrying on:

WASHC2C (UniProt Q9Y4E1)
inactive: [1] 0.052 | [2] -0.018 | [3] -0.041 | [4] -0.095 | [5] -0.087

WDR7 (UniProt Q9Y4E6)
inactive: [1] 0.055 | [2] 0.011 | [3] 0.019 | [4] 0.029 | [5] -0.027

WDR36 (UniProt Q8NI36)
inactive: [1] 0.006 | [2] 0.001 | [3] 0.06 | [4] 0.025 | [5] 0.035

WDR81 (UniProt Q562E7)
inactive: [1] -0.01 | [2] 0.02 | [3] 0.018 | [4] 0.013 | [5] 0.049

WNK4 (UniProt Q96J92)
inactive: [1] -0.074 | [2] 0 | [3] -0.045 | [4] -0.086 | [5] 0.204

XPA (UniProt P23025)
inactive: [1] 0.01 | [2] -0.016 | [3] 0.042 | [4] -0.022 | [5] -0.13

VMA21 (UniProt Q3ZAQ7)
inactive: [1] 0 | [2] 0.003 | [3] -0.014 | [4] 0.042 | [5] -0.037

WARS (UniProt P23381)
inactive: [1] 0.041 | [2] -0.023 | [3] -0.031 | [4] 0.026 | [5] 0.03

WDR62 isoform 4 (UniProt O43379)
inactive: [1] 0.026 | [2] -0.004 | [3] -0.011 | [4] 0.003 | [5] 0.038

VPS52 (UniProt Q8N1B4)
inactive: [1] -0.011 | [2] -0.003 | [3] 0.051 | [4] -0.005 | [5] 0.01

WDR77 (UniProt Q9BQA1)
inactive: [1] 0.02 | [2] 0.012 | [3] 0.012 | [4] 0.006 | [5] 0.006

WWP2 (UniProt O00308)
inactive: [1] 0.009 | [2] -0.111 | [3] 0.042 | [4] -0.035 | [5] -0.035

WDR18 (UniProt Q9BV38)
inactive: [1] 0.014 | [2] 0.043 | [3] -0.003 | [4] 0.002 | [5] 0.012

WIPI2 isoform 6 (UniProt Q9Y4P8)
inactive: [1] 0.092 | [2] 0.088 | [5] -0.073
